This assay deals with FUS (FUS RNA binding protein) (human (endogenous in HUVECs)) (UniProt P35637). The assay is described as follows: co-IP; ox-LDL-treated HUVECs lysed in non-denaturing lysis buffer; about 300 ug protein with 1 ug FUS antibody and protein A/G magnetic beads at 4 C overnight; bound proteins blotted with HDAC6 antibody; rabbit IgG as negative control; results speak of the nucleus.

Sequences of proteins named here, by UniProt entry; tags and fusion partners are left off.
UniProt P35637: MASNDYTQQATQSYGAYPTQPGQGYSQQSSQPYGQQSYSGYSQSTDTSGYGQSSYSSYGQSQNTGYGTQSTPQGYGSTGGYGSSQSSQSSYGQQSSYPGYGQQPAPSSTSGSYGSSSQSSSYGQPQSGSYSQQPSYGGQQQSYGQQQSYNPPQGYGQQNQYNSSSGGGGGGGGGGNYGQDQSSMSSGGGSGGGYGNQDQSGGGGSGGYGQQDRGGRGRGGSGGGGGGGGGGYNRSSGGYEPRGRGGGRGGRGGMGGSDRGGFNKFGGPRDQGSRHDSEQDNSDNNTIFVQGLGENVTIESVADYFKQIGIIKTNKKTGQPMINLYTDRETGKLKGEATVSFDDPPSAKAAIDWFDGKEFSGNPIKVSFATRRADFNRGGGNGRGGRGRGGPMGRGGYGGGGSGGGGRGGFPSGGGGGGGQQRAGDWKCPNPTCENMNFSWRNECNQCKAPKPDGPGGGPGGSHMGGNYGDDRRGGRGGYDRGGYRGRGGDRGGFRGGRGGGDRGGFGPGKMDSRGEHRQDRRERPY
UniProt Q9UBN7: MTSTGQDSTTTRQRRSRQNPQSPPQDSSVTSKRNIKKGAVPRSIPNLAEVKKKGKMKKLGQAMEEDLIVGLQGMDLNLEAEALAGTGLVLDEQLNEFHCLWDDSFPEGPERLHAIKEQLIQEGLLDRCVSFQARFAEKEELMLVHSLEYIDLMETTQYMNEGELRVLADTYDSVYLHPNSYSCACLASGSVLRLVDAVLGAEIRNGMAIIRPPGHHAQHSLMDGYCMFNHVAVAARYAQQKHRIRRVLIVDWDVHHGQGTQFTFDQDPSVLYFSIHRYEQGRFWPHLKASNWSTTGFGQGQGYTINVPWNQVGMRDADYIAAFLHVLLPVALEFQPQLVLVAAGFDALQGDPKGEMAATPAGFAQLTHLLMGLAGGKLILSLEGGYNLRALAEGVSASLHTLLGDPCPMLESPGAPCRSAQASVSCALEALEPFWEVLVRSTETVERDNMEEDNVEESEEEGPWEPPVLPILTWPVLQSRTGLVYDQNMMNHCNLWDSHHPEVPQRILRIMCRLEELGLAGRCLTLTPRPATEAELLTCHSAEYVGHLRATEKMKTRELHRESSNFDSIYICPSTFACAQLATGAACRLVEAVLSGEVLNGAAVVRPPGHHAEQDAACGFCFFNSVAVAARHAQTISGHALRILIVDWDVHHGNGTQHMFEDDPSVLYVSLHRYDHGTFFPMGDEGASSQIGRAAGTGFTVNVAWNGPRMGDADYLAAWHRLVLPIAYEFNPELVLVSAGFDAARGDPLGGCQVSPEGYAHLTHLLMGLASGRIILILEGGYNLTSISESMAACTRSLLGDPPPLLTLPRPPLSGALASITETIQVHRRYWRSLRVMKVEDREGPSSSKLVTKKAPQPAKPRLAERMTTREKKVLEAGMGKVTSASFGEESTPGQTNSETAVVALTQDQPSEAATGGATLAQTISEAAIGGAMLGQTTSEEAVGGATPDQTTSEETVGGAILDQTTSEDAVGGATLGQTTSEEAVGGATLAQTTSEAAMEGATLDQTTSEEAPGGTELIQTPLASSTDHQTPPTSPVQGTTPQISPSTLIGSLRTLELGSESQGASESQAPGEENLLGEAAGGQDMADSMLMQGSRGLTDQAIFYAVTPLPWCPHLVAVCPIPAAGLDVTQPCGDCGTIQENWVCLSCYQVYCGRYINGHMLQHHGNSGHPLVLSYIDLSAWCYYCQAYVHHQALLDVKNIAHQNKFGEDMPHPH

Results are given in words; binding and its absence hold for the method and conditions named. Binding seen in cells or lysates may run through a third protein. Some entries that bind do so weakly or less than the wild type.

In the case of “histone deacetylase 6 (HDAC6) (from UniProt Q9UBN7 1-1215) (enzyme)”, the binding entry is listed as “binds”.
